# Experimental data reported in EP4596570A1, “SRC INHIBITORS AND USES THEREOF” (Universitat de Barcelona, priority 2024, dated 2025).
# Entries after “also recorded” stand apart in the source; their conditions may differ. At least one peptide structure holds a part that was inferred or is arguable (an end, a ring closure or a residue).
# Assays:
# [1] = system: SW620-src colorectal cancer cells; assay: Soft agar colony formation assay; format: cell-based, human; details: Src transformed SW620 colorectal cancer cells, 5 µM of Drugs, 3 weeks, colonies with >50 cells counted; Fig. 11
# Procedure: (§1) SW620-src colorectal cancer cells were a kind gift of Dr. Serge Roche group. These cells have been stably transfected with human Src as described in Aponte, E., et al. (2021). "Regulation of Src tumor activity by its N-terminal intrinsically disordered region." Oncogene, 41: 960-970.. SW620-src colorectal cancer cells were grown in DMEM supplemented with 10% FBS (Gibco 10500-064), 1% GlutaMAX (Gibco 35050038) 1% P/S (Corning 30-002-CI). Cell lines were grown at 37°C with an atmosphere of 95% air, 5% CO2. All the reagents used during cell culture procedures were heated to 37°C in a water bath before its use. Before each assay, the absence of mycoplasma was tested according to a previously described protocol (Molla Kazemiha, V., et al. (2009). "PCR-based detection and eradication of mycoplasmal infections from various mammalian cell lines: a local experience." Cytotechnology 61(3): 117-124).
# Cells were plated at density of 10,000 per well in 24-well plates in 0.3% soft agar on top of a base layer of 0.7% agar. The cells were treated with 5 µM of Drugs, and the plates were incubated for 3 weeks, replacing the media every week. […] These experiments were repeated twice with 4 replicates per group, and only colonies with >50 cells were counted.
# [2] = system: SW620-src colorectal cancer cells; assay: Wound healing assay (scratch, cell migration); format: cell-based, human; details: Src transformed SW620 cells, 24h after scratch; Fig. 12
# Procedure: as §1, with “Before each assay, the absence of mycoplasma was tested according to a previously described protocol (Molla Kazemiha, V., et al. (2009). "PCR-based detection and eradication of mycoplasmal infections from various mammalian cell lines: a local experience." Cytotechnology 61(3): 117-124).” left out
# Cells were plated into 24-well plate at density of 500,000 cells/well and were cultured until they reach a 100% confluence. […] Each well was photographed in the same site to quantify cell migration after 24 hours. […] The obtained images were analyzed by Imaged software (Schindelin, J., et al. (2012). "Fiji: an open-source platform for biological-image analysis." Nature Methods 9(7): 676-682) using the MRI wound healing tool plugin (Suarez-Arnedo, A., et al. (2020). "An image J plugin for the high throughput image analysis of in vitro scratch wound healing assays." PLOS ONE 15(7): e0232565) . […]
smiles,measurement,setting,value
"COC(=O)N[C@@H](CO)C(=O)N[C@@H](CC(C)C)C(=O)N[C@@H](CCC(=O)O)C(=O)N1CCC[C@H]1c1cn(-c2ccc(-c3ccc(-n4cc([C@@H]5CCCN5C(=O)[C@H](CCC(=O)O)NC(=O)[C@H](CC(C)C)NC(=O)[C@H](CO)NC(=O)OC)nn4)cc3)cc2)nn1 [SLE-Me, Moc-Ser-Leu-Glu-1-Glu-Leu-Ser-Moc]",colony formation,[1],significantly reduced; also recorded: significantly decrease
same,migration of cancer cells (scratch wound healing),[2],significantly reduced; also recorded: significantly impair
